Experimental data taken from publication PMC13290226.

Protein sequences, listed by entry. Tags and fused reporters are not part of them.
UniProt A0A2K3DQG3: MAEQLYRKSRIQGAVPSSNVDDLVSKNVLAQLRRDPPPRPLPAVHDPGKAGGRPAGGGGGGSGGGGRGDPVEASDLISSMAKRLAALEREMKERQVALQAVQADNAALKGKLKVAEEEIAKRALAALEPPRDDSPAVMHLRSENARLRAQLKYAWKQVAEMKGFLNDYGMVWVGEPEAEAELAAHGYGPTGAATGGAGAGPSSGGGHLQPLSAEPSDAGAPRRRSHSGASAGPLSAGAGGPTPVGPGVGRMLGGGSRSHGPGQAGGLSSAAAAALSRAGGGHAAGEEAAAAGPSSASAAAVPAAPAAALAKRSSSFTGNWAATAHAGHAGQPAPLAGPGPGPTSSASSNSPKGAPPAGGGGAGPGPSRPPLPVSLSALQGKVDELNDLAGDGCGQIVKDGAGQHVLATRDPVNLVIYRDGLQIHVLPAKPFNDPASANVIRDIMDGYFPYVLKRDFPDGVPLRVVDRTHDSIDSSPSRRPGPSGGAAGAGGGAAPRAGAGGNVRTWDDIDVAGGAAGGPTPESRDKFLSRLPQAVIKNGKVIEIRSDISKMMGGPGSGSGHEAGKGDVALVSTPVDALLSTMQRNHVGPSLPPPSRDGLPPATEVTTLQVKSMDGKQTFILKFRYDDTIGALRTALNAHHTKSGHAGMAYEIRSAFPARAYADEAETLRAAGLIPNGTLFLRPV

Target: T1, His-tagged CrIFT172_(968-C) (Chlamydomonas reinhardtii) (UniProt Q5DM57)
T1 sequence: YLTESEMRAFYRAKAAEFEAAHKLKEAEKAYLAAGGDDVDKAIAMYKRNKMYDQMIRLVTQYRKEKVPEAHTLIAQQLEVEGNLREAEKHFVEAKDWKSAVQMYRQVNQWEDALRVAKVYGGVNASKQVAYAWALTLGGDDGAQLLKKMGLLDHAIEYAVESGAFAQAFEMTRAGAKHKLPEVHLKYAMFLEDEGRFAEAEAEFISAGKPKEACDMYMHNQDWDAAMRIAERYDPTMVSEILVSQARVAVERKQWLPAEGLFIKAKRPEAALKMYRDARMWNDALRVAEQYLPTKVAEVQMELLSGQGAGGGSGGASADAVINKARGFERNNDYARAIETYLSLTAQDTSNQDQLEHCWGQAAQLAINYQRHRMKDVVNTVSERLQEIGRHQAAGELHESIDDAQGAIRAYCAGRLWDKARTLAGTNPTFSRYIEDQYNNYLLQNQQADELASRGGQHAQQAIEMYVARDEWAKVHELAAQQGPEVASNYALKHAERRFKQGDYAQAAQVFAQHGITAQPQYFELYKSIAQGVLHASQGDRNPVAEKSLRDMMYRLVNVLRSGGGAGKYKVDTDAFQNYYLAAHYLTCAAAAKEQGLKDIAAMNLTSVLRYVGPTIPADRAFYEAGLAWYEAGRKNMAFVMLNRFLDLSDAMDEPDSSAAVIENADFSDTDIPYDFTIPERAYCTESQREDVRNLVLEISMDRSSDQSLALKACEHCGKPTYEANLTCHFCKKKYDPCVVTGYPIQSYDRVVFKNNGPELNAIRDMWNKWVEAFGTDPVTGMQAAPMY
Assay: affinity purification with mass spectrometry; 30 μM His-CrIFT172_(968-C) immobilised on TALON beads, incubated with 1 mg C. reinhardtii flagella extract in HMSK buffer (10 mM HEPES pH 7.4, 5 mM MgSO4, 4% sucrose, 25 mM KCl) at 4 °C for 2 hr; washed with 30 mM imidazole, eluted with 300 mM imidazole; His-TEV protease as control; TMT mass spectrometry, hits FDR <5% and fold-change ≥100%; only the target purified

In the case of “UBX-domain containing protein (CHLRE_06g293900v5) (from UniProt A0A2K3DQG3 1-684)”, the binding is reported as “binds”.

No constants are given. Whether binding was seen depends on the method and setting. In cells and extracts the contact can be indirect. A yes stands for co-enrichment or nearness to the bait. Other partners may have been found. Where a sequence is shown, tags or fusion partners need not be part of it.
